According to publication PMC6745524, “Diverse roles of TssA‐like proteins in the assembly of bacterial type VI secretion systems” (The EMBO Journal, 2019):
No constants are given. Whether binding was seen depends on the method and setting. Tags and fused reporters may be left off the sequences shown.

Sequences of proteins named here, by UniProt entry; tags and fusion partners are left off.
UniProt P72350: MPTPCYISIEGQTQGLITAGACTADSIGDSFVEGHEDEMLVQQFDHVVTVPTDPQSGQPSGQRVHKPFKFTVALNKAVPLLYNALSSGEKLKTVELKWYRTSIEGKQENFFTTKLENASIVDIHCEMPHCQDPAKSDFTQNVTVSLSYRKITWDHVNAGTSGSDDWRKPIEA

Target: T1, TssAVC, bacterial two-hybrid fusion (Vibrio cholerae) (UniProt Q9KN46)
T1 sequence: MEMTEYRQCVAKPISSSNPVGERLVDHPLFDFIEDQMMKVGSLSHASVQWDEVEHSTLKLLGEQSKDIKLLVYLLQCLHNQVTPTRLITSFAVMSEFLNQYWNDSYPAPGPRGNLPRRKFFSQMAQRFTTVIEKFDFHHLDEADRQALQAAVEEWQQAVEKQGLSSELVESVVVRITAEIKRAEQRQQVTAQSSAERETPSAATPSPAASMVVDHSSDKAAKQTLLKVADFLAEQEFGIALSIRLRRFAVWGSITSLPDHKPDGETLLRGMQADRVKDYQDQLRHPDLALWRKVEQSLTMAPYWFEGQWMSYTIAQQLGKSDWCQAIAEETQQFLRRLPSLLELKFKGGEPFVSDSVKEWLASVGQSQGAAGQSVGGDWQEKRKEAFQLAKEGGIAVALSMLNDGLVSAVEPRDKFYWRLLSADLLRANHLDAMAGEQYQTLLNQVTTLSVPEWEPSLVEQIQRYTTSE
Assay: two-hybrid; bacterial two-hybrid system (Euromedex); cells incubated at 30°C for 24-48 h

Substance: Hcp, bacterial two-hybrid fusion (from UniProt P72350 1-172)
- binding: no binding
